In article PMC6461666 one finds binding data, which are given here for 2 molecules.

No constants are given. Whether binding was seen depends on the method and setting. In cells and extracts the contact can be indirect. Some results given as binding are weak or reduced against the parent protein; the word gives no strength. Tags and fused reporters may be left off the sequences shown.

The target of test [1] is T1, FLAG-RNF169 (UniProt Q8NCN4).
T1 sequence: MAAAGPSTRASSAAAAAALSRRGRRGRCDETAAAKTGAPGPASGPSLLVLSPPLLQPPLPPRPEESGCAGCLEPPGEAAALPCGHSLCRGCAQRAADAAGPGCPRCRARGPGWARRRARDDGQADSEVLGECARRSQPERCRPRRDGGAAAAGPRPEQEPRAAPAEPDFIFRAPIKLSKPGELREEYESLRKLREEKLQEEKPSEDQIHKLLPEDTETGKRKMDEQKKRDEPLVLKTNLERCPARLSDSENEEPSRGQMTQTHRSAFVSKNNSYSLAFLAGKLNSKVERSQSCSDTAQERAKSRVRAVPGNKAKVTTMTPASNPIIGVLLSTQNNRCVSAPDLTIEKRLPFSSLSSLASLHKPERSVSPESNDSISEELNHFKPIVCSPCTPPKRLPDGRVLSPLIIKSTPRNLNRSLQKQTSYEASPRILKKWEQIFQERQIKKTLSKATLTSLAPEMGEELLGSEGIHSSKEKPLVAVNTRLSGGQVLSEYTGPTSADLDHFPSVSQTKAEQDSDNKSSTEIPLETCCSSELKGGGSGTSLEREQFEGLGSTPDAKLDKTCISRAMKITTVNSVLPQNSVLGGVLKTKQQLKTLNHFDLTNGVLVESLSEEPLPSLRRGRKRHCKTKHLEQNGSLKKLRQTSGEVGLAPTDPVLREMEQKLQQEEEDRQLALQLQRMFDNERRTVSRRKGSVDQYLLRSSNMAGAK
As to the kind of experiment: co-IP; HEK-293T soluble extracts transiently expressing tagged DYRK1A and RNF169 versions; immunoprecipitation with anti-FLAG (Fig. 3C, 4B, 4C, 4E) or anti-HA (Fig. 4A); binding buffer 50 mM Hepes pH 7.4, 150 mM NaCl, 2 mM EDTA, 1% NP-40; Western blot.

In test [2] the target is T2, MBP-RNF169 (UniProt Q8NCN4).
T2 sequence: T1 sequence
In words: pull-down; MBP-RNF169 expressed in bacteria as bait; HEK-293T extracts expressing FLAG-DYRK1A alone or together with HA-DCAF7 as preys; Western blot with antibodies to the tags; only the target purified.

B1: DCAF7 (endogenous, HEK-293T) (protein, UniProt P61962 1-342)
chain: MSLHGKRKEIYKYEAPWTVYAMNWSVRPDKRFRLALGSFVEEYNNKVQLVGLDEESSEFICRNTFDHPYPTTKLMWIPDTKGVYPDLLATSGDYLRVWRVGETETRLECLLNNNKNSDFCAPLTSFDWNEVDPYLLGTSSIDTTCTIWGLETGQVLGRVNLVSGHVKTQLIAHDKEVYDIAFSRAGGGRDMFASVGADGSVRMFDLRHLEHSTIIYEDPQHHPLLRLCWNKQDPNYLATMAMDGMEVVILDVRVPCTPVARLNNHRACVNGIAWAPHSSCHICTAADDHQALIWDIQQMPRAIEDPILAYTAEGEINNVQWASTQPDWIAICYNNCLEILRV
As for B1, in test [1], the binding result is recorded as “binds”.

B2: HA-DCAF7 (protein, UniProt P61962 1-342)
chain: B1 chain
As for B2, in test [2], the binding result was “binds”.
